At least one compound was matched to its structure with a doubt left.
Legend:
[1] = test system: CSCs from the IC#1 library (G0), high-grade ovarian cancer; test: plate (colony formation) assay, rhodamine B stain, treatment-naive CSC library; type: cell-based, human
Experimental: To probe for paclitaxel resistance in the IC#1 library of CSCs, a paclitaxel dose-response curved were established by challenging 10,000 CSCs with a spectrum of paclitaxel concentrations. […] The plates were then stained with rhodamine B. Rhodamine B-stained 100 nM paclitaxel treatment plate yielded less than 0.1% of the control colonies.
(§1) Survivors were re-plated en masse, and cycled through two additional rounds of 100 nM paclitaxel for 3 hours with recovery in between for 10 days, after which visible colonies were selected and individually expanded as pedigrees (FIG. 28B). To determine relationships between these ad hoc, paclitaxel-resistant pedigrees from the library and the 92 randomly sampled pedigrees from the treatment-naïve IC#1 library assessed for CSC heterogeneity, their CNV profiles were mapped onto the heterogeneity map established for IC#1.
High-grade ovarian cancer was surgically resected, and tumor tissue was collected into cold F12 media (Gibco, USA) with 5% fetal bovine serum (HyClone, USA) and then minced by sterile scalpel into 0.2-0.5 mm^3 sizes to a viscous and homogeneous appearance. The minced tissue was digested in 2 mg/mL collagenase type IV (Gibco, USA) at 37° C. for 30-60 min with agitation. […]

[2] = test system: paclitaxel resistant (G3) IC#1 CSC library; test: plate (colony formation) assay, paclitaxel-resistant CSC library; type: cell-based, human
Experimental: as §1
The GSEA data in the table above highlighted the PGR pathway. Analysis of gene expression in the IC#1 CSC library treated with successive rounds of paclitaxel indeed confirmed a progressive increase in PGR expression (FIG. 31). […] The fate of 25,000 colony forming units from the IC#1 CSC library and the paclitaxel resistant library (G3) following exposure to combinations of paclitaxel, RU486, and cisplatin were directly compared. RU486 is a PGR antagonist that has previously been tested and failed as a single agent in clinical trials for recurrent ovarian cancer.
Next, the long-term impact of these drug combinations on the paclitaxel-resistant G3 pool over successive rounds of exposure was investigated.
High-grade ovarian cancer was surgically resected, and tumor tissue was collected into cold F12 media (Gibco, USA) with 5% fetal bovine serum (HyClone, USA) and then minced by sterile scalpel into 0.2-0.5 mm^3 sizes to a viscous and homogeneous appearance. The minced tissue was digested in 2 mg/mL collagenase type IV (Gibco, USA) at 37° C. for 30-60 min with agitation. Dissociated cells were passed through a 70 μm Nylon mesh (Falcon, USA) to remove aggregates and then were washed four times in cold F12 media, and then seeded onto a feeder layer of lethally irradiated 3T3-J2 cells in c-FAD media modified to SCM-68 media by the addition of 125 ng/mL R-spondin1 (R&D systems, USA), 1 μM Jagged-1 (AnaSpec Inc., USA), 100 ng/ml human Noggin (Peprotech, USA), 2.5 μM Rock-inhibitor (Calbiochem, USA), 2 μM SB431542 (Cayman chemical, USA), and 10 mM nicotinamide (Sigma-Aldrich, USA).
Cells were cultured at 37° C. in a 7.5% CO2 incubator. The culture media was replaced every two days. Colonies were digested by 0.25% trypsin-EDTA solution (Gibco, USA) for 5-8 min and passaged every 7 to 10 days. Colonies were trypsinized by TrypLE Express solution (Gibco, USA) for 8-15 min at 37° C. and cell suspensions were passed through 30 μm filters (Miltenyi Biotec, Germany). Approximately 20,000 epithelial cells were seeded to each well of 6-well plate. Cloning cylinder (Pyrex, USA) and high vacuum grease (Dow Corning, USA) were used to select single colonies for pedigrees. Gene expression analyses were performed on cells derived from passage 2-8 (P2-P8) cultures.

[3] = test system: recurrent ovarian cancer; details: cited from earlier work
[4] = 25,000 colony-forming units, single agent

| SMILES | activity against the treatment naive IC#1 G0 library [1, 4] | activity against the G3 paclitaxel library [2, 4] | resistance over four additional successive rounds of exposure, measured by colony formation ([2]; Ru486 10 μM, paclitaxel 100 nM, cisplatin 20 μM) | killing of paclitaxel-resistant CSCs in combination with paclitaxel [2] | effect as a single agent in cellular assays ([2]; single agent) | outcome as a single agent in clinical trials [3] | effect on colony formation of the IC#1 CSC library ([1]; 10,000 colonies, rapamycin 1 μM) | effect on colony formation of the paclitaxel-resistant pool (G3) ([2]; 10,000 colonies, paclitaxel 100 nM, rapamycin 1 μM) |
| --- | --- | --- | --- | --- | --- | --- | --- | --- |
| CC#C[C@]1(O)CC[C@H]2[C@@H]3CCC4=CC(=O)CCC4=C3[C@@H](c3ccc(N(C)C)cc3)C[C@@]21C [RU486] | no obvious activity | considerable activity | progressive resistance | remarkably effective in killing paclitaxel-resistant CSCs | modest effects | failed | – | – |
| CO[C@H]1C[C@@H]2CC[C@@H](C)[C@@](O)(O2)C(=O)C(=O)N2CCCC[C@H]2C(=O)O[C@H]([C@H](C)C[C@@H]2CC[C@@H](O)[C@H](OC)C2)CC(=O)[C@H](C)/C=C(\C)[C@@H](O)[C@@H](OC)C(=O)[C@H](C)C[C@H](C)/C=C/C=C/C=C/1C [rapamycin] | – | – | – | remarkably effective in killing paclitaxel-resistant CSCs | modest effects | – | very little effect | very little effect |
